Results are given in words; binding and its absence hold for the method and conditions named. In cells and extracts the contact can be indirect. Some binding calls cover weakened binding; strength is not graded here.
Assays:
[1] = biological target: YFP-tagged PARP1 (UniProt P09874); assay: co-IP; GFP-Trap beads on lysates (with Pierce Universal Nuclease) of YFP-PARP1-transfected HEK293T cells, wild type or YBX1-/-, untreated or 10 Gy IR; blot for YBX1
[2] = biological target: PARP1 (human (endogenous in HeLa, U2OS, HEK293T)) (UniProt P09874); assay: proximity ligation; Duolink PLA on fixed, permeabilised cells (HeLa, U2OS, HEK293T) with antibodies against the two proteins; untreated or 10 Gy IR; also in YBX1-/- and Y3 ASO-treated cells
[3] = biological target: Ser139-phosphorylated histone H2AX (γH2AX) (human (endogenous in U2OS, HEK293T, HeLa)) (UniProt P16104); assay: as above

The chains behind the UniProt entries cited, without tags or fusion partners.
UniProt P09874: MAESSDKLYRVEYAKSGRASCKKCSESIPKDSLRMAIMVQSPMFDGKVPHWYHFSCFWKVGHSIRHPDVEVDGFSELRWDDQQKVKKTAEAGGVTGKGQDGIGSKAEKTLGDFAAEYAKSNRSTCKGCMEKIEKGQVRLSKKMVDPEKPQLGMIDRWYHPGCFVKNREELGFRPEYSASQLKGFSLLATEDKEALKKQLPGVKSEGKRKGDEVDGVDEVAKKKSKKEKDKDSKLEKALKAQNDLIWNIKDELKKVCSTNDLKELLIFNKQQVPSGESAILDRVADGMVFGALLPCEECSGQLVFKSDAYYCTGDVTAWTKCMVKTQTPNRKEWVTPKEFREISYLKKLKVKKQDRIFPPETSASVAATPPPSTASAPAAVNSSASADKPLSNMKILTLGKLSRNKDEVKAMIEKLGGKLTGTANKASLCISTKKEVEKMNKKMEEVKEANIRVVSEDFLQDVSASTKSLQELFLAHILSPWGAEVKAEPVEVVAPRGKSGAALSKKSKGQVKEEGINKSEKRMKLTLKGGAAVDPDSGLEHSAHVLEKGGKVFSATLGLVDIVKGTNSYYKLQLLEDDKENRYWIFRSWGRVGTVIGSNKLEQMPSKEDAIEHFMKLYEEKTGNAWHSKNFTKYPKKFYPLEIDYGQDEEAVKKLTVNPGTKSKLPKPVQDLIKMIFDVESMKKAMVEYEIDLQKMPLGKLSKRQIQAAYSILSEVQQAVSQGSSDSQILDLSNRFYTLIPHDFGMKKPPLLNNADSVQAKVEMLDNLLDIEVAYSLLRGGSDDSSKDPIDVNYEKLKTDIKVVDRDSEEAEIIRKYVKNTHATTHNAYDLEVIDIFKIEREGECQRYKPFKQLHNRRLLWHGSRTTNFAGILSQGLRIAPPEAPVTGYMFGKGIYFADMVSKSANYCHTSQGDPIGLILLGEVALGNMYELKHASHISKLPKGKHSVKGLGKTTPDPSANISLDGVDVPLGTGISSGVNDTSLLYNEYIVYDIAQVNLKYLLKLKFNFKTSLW

Measured: binding

Y-Box Binding Protein 1 (YBX1) (from UniProt P67809 1-324)
binds: all assays above
